For the test, the system named is BDF1 mice, B16 melanoma ip, median survival T/C. The experiment in a line: NCI In Vivo Anticancer Drug Screen. Data for tumor model B16 Melanoma (intraperitoneal) in B6D2F1 (BDF1) mice. Particulars: T/C endpoint: median survival time, higher T/C = longer survival. A digest of the protocol:
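Values are ratios of treated (T) to vehicle-control (C) measurements of survival or tumor size in tumor-bearing mice.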

Setting [1] is: dose: 200.0 mg/kg/injection, schedule: Q01DX009 (ip), vehicle: saline with Tween-80.
Setting [2] is: dose: 400.0 mg/kg/injection, schedule: Q01DX009 (ip), vehicle: saline with Tween-80.
[3] abbreviates: dose: 50.0 mg/kg/injection, schedule: Q01DX009 (ip), vehicle: saline with Tween-80.
Setting [4] is: dose: 300.0 mg/kg/injection, schedule: Q01DX009 (ip), vehicle: Klucel (hydroxypropylcellulose) (HPC).
Where [5] appears, read: dose: 12.5 mg/kg/injection, schedule: Q01DX009 (ip), vehicle: Klucel (hydroxypropylcellulose) (HPC).
Setting [6] is: dose: 25.0 mg/kg/injection, schedule: Q01DX009 (ip), vehicle: Klucel (hydroxypropylcellulose) (HPC).
The mark [7] stands for this setting: dose: 50.0 mg/kg/injection, schedule: Q01DX009 (ip), vehicle: Klucel (hydroxypropylcellulose) (HPC).
The mark [8] stands for this setting: dose: 100.0 mg/kg/injection, schedule: Q01DX009 (ip), vehicle: Klucel (hydroxypropylcellulose) (HPC).
The mark [9] stands for this setting: dose: 200.0 mg/kg/injection, schedule: Q01DX009 (ip), vehicle: Klucel (hydroxypropylcellulose) (HPC).
The mark [10] stands for this setting: dose: 3.0 mg/kg/injection, schedule: Q01DX009 (ip), vehicle: Klucel (hydroxypropylcellulose) (HPC).
[11] abbreviates: dose: 12.5 mg/kg/injection, schedule: Q01DX009 (ip), vehicle: saline with Tween-80.
Setting [12] is: dose: 25.0 mg/kg/injection, schedule: Q01DX009 (ip), vehicle: saline with Tween-80.

The list is a part of this screen's results and no random one: it gathers tests that were run many times, whatever their T/C, doses with no T/C, and many T/C values between a quarter and a half above the control. Other doses and runs of a compound stand elsewhere. T/C is the treated group as % of the vehicle group. Some doses have a count of surviving animals in place of a T/C: the source holds a T/C of zero for them, seemingly a mark for toxic or unscored doses. Some survivor counts are full or nearly so, which does not show that the dose was tolerated: survival well below the control is almost never listed, so the zero probably covers shortened survival too. Counts of survivors are from the toxicity check (mostly the fifth day) where no day follows; animals may have died later. Schedules are NCI's codes, read here as Q, the interval in days (D) or hours (H), X, the number of doses. Some entries were tested several times; their values stand side by side, smallest first. Where survival is the endpoint, this PubChem deposit counts one and a half times the control or more as active, and values a quarter to a half above the control carry no call in these data; other NCI protocols may use other cut-offs. Some T/C values carry the count of animals alive at the toxicity check (mostly the fifth day); where none is given, no animal had died by that day. Peptide text beside a SMILES is read from it. * marks the point of attachment. Trt = c1ccc(C(c2ccccc2)(c2ccccc2)*)cc1; Cbz = O=C(OCc1ccccc1)*; Bn = c1ccc(C*)cc1; βAla = NCCC(=O)O

Turning to `O=C(NC(Cc1ccccc1)C(=O)O)c1ccccc1` (stereo unspecified), the survivor count under setting [1] was 10 of 10 and the survivor count under setting [2] is on record as 9 of 10.

Consider `COc1cc2ccc(CC(=O)NCc3ccccc3)cc2cc1OC`, for which the T/C under setting [3] was 125 % of control; the T/C (dose: 90.0 mg/kg/injection, schedule: Q01DX009 (ip), vehicle: Klucel (hydroxypropylcellulose) (HPC)) is 125 % of control; the T/C under setting [1] is 127 % of control; the T/C under setting [4] was 127 % of control.

For the compound `O=C(OCc1ccccc1)C(=O)OCc1ccccc1`, under setting [1], the T/C was 134 % of control. For the same compound, the survivor count under setting [2] is recorded as 5 of 10 and the survivor count (dose: 400.0 mg/kg/injection, schedule: Q04DX003 (ip), vehicle: saline with Tween-80) is 6 of 10.

Take `O=c1[nH]c(=O)n(C2CC(O)C(CO)O2)cc1C(F)(F)F` (stereo unspecified): the survivor count reads like this: (dose: 40.0 mg/kg/injection, schedule: Q01DX009 (ip), vehicle: saline) 0 of 6; (dose: 80.0 mg/kg/injection, schedule: Q01DX009 (ip), vehicle: saline) 0 of 6; (dose: 100.0 mg/kg/injection, schedule: Q01DX009 (ip), vehicle: saline) 10 of 10; (dose: 160.0 mg/kg/injection, schedule: Q01DX009 (ip), vehicle: saline) 0 of 6; (dose: 200.0 mg/kg/injection, schedule: Q01DX009 (ip), vehicle: saline) 10 of 10; (dose: 400.0 mg/kg/injection, schedule: Q01DX009 (ip), vehicle: saline) 10 of 10.

Consider `O=C1NC(c2ccccc2)(c2ccccc2)C(=O)N1CCN(CCCl)CCCl`, for which the T/C under setting [5] is 139 % of control and the T/C under setting [6] is 135 % of control [9 of 10 alive]. Also, the survivor count reads like this: under setting [5], 10 of 10; under setting [7], 3 of 6; under setting [8], 0 of 10 and 1 of 6; under setting [9], 3 of 6.

For `CCC(C)Nc1ccc(N)cc1` (stereo unspecified), the survivor count by setting is: (dose: 1.5 mg/kg/injection, schedule: Q01DX009 (ip), vehicle: Klucel (hydroxypropylcellulose) (HPC)) 3 of 10; under setting [10], 2 of 10.

With `COc1cc2oc(=O)ccc2cc1[C@@H]1OC(=O)C2(C)O[C@@H]12` (stereo partly specified), the survivor count (dose: 2.5 mg/kg/injection, schedule: Q01DX009 (ip), vehicle: distilled water + Tween-80) is 10 of 10.

For the compound `COC(=O)C(CSC(c1ccccc1)(c1ccccc1)c1ccccc1)NC(=O)C(CSCc1ccccc1)NC(=O)CCNC(=O)OCc1ccccc1` (stereo unspecified) ({Cbz-βAla}-Cys(Bn)-Cys(Trt)-OMe; configuration not given here), under setting [8], the T/C is 131 % of control and the survivor count is listed as 10 of 10.

With `Nc1c(Br)cc2c(c1Br)Cc1cc(Cl)ccc1-2`, the survivor count is reported as 10 of 10 (dose: 25.0 mg/kg/injection, schedule: Q01DX009 (ip), vehicle: other); 10 of 10 (dose: 100.0 mg/kg/injection, schedule: Q01DX009 (ip), vehicle: other); 10 of 10 under setting [9]; 9 of 10 (dose: 400.0 mg/kg/injection, schedule: Q04DX003 (ip), vehicle: other).

With `COc1cccc2c1C(=N)c1c(O)c3c(c(O)c1C2=O)C[C@@](O)(C(=O)CO)C[C@@H]3OC1CC(N)C(O)C(C)O1` (stereo partly specified), the survivor count by setting is: (dose: 200.0 mg/kg/injection, schedule: Q01DX001 (ip), vehicle: water) 9 of 10; (dose: 400.0 mg/kg/injection, schedule: Q01DX001 (ip), vehicle: water) 7 of 10.

In the case of `Cc1ccc(NC(=O)COc2ccc(Cl)cc2)c(C)c1`, the survivor count by setting is: under setting [11], 10 of 10; (dose: 75.0 mg/kg/injection, schedule: Q01DX009 (ip), vehicle: Klucel (hydroxypropylcellulose) (HPC)) 10 of 10; (dose: 150.0 mg/kg/injection, schedule: Q01DX009 (ip), vehicle: Klucel (hydroxypropylcellulose) (HPC)) 10 of 10; under setting [4], 10 of 10.

`COC(=O)C(CC(C)C)NC(=O)C(N)Cc1ccc(OCc2ccccc2)cc1` (stereo unspecified) (H-Tyr(Bn)-Leu-OMe; configuration not given here): the survivor count under setting [7] is 9 of 10.

Take `CNC(c1ccncc1)C(NC)c1ccncc1` (stereo unspecified): the survivor count (dose: 200.0 mg/kg/injection, schedule: Q04DX003 (ip), vehicle: Klucel (hydroxypropylcellulose) (HPC)) is recorded as 10 of 10.

For `COC1C=COC2(C)Oc3c(C)c(O)c4c(c3C2=O)/C(=N/C2CCC(O)OC2C)C=C(NC(=O)/C(C)=C\C(=O)C2CC2C(O)C(C)C(O)C(C)C(OC(C)=O)C1C)C4=O` (stereo unspecified), the survivor count runs as follows: (dose: 9.25 mg/kg/injection, schedule: Q01DX009 (ip), vehicle: saline with Tween-80) 8 of 8; (dose: 37.0 mg/kg/injection, schedule: Q01DX009 (ip), vehicle: saline with Tween-80) 10 of 10; (dose: 75.0 mg/kg/injection, schedule: Q01DX009 (ip), vehicle: saline with Tween-80) 10 of 10.

Turning to `O=C(Nc1ccc(Cl)cc1)Nc1ccccc1Cl`, the survivor count was 10 of 10 (dose: 200.0 mg/kg/injection, schedule: Q01DX009 (ip), vehicle: gum acacia) and 9 of 9 (dose: 400.0 mg/kg/injection, schedule: Q01DX009 (ip), vehicle: gum acacia).

Turning to `CC(CC=O)CCCC(C)(C)O` (stereo unspecified), the survivor count (dose: 400.0 mg/kg/injection, schedule: Q01DX009 (ip), vehicle: Klucel (hydroxypropylcellulose) (HPC)) is 10 of 10.

`COc1cc(C(C)c2cc3c(cc2OCCO)OCO3)cc(OC)c1OC` (stereo unspecified): the survivor count under setting [2] is given as 2 of 10.

In the case of `CNC(=O)OCc1c(COC(=O)NC)c(C)n(-c2ccc(OC)cc2)c1C`, the T/C by setting is: under setting [5], 126 % of control; under setting [6], 129 % of control; under setting [7], 135 % of control. In addition, under setting [8], the survivor count is 10 of 10.

Turning to `Cc1ccc(N2C(=O)CC(Sc3ccccc3N)C2=O)cc1` (stereo unspecified), the survivor count reads like this: under setting [7], 10 of 10; under setting [9], 7 of 10.

With `CC(=O)O[C@H]1C(=O)O[C@@H]2C[C@H]3C(C)=CC(=O)[C@@H](O)[C@]3(C)[C@H]3[C@@]4(O)OC[C@]32[C@@H]1[C@@H](C)[C@H]4O`, the T/C was 127 % of control under setting [10]; 131 % of control (dose: 6.0 mg/kg/injection, schedule: Q01DX009 (ip), vehicle: Klucel (hydroxypropylcellulose) (HPC)); 128 % of control (dose: 12.0 mg/kg/injection, schedule: Q01DX009 (ip), vehicle: Klucel (hydroxypropylcellulose) (HPC)); 125 % of control (dose: 12.0 mg/kg/injection, schedule: Q01DX009 (ip), vehicle: saline). Also, the survivor count under setting [12] is on record as 2 of 10 and the survivor count under setting [3] is listed as 0 of 10.

In the case of `COc1cc2c[n+](C)c3c(c2cc1OC)Cc1cc2c(cc1-3)OCO2`, the T/C (dose: 6.25 mg/kg/injection, schedule: Q01DX009 (ip), vehicle: saline with Tween-80) is 148 % of control; the T/C under setting [11] was 131 % of control [9 of 10 alive on day 9]; the T/C under setting [12] is 139 % of control; the T/C under setting [3] was 147 % of control.

For the compound `CCCCN(CCCC)CCC(=O)c1ccc(OC)c2ccccc12`, the survivor count under setting [3] is given as 10 of 10.

Turning to `O=C(c1cccc(C(=O)n2c3c(c4ccccc42)CCCC3)c1)n1c2c(c3ccccc31)CCCC2`, the survivor count by setting is: (dose: 100.0 mg/kg/injection, schedule: Q01DX009 (ip), vehicle: saline with Tween-80) 10 of 10; under setting [1], 8 of 10; under setting [2], 8 of 10.

On to `CN(C)CCN1C(=O)c2cccc3cc(N)cc(c23)C1=O`, for which the survivor count (dose: 32.0 mg/kg/injection, schedule: Q01DX009 (ip), vehicle: acid diluted with saline) is on record as 9 of 10.

For the origin of these results see PubChem BioAssay AID192 (DTP/NCI, 2004).
